Library screening results

Protein sequences, listed by entry. Tags and fused reporters are not part of them.
UniProt E9BF75, entry or part of it: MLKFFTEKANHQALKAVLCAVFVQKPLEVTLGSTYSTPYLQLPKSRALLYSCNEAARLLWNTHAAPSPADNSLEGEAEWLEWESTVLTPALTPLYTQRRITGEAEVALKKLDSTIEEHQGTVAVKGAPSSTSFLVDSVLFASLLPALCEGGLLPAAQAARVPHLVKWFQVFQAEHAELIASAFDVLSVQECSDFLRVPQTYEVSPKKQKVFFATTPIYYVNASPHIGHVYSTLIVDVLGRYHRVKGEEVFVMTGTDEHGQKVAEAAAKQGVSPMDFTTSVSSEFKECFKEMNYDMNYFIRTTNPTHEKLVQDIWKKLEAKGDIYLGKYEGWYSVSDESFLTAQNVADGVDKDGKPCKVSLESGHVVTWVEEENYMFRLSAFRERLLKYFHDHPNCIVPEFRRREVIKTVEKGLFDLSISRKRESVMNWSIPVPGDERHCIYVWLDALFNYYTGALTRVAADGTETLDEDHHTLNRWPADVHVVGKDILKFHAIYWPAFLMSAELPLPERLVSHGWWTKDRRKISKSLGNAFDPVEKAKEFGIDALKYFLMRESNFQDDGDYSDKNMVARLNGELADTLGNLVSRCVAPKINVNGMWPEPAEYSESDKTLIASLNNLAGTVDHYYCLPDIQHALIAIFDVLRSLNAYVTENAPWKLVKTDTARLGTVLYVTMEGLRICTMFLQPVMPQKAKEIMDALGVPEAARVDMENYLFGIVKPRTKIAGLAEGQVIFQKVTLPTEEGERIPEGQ

Data taken from ChEMBL document CHEMBL3988442, “University of Dundee, Small-Polar-MMV Screening Library” (2021).

Mtb heat-shock: 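Assay on Mycobacterium tuberculosis, filed only as a heat shock assay from Cornell; the read-out is not stated. The concentration is filed as 10 mM, unlikely as a test dose, so the dose is not known. The record gives no direction; compounds that gave an IC50 in retests scored well above the rest, so higher reads as stronger inhibition. Of about 69,000 compounds tested this way, about 930 (1.4%) reached 50% or more in at least one test.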
LdMetRS: 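Primary screen of methionyl-tRNA synthetase; the read-out is not stated. Target: Methionyl-tRNA synthetase (putative), Leishmania donovani (UniProt E9BF75). The test concentration is not given. The values are filed as inhibition. About 68,000 compounds were tested under these conditions; 0.035% (about 24) showed 50% or more at least once.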
Mtb growth Cornell: 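Whole-cell assay for inhibitors of Mycobacterium tuberculosis growth, labelled Cornell in the record; the read-out is not stated. The concentration is filed as 10 mM, unlikely as a test dose, so the dose is not known. The record gives no direction; compounds strong in two other growth screens of this library score well above the rest, so higher reads as stronger inhibition. Size under these conditions: about 53,000 compounds, about 900 of them at 50% or above in at least one test.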

All values are in %.
The controls that fix the scale are not given in the record; negative values are as filed.
This is an unselected part of the compounds tested.
A dash means the value is not listed here; it may have been measured.

structure,Mtb heat-shock,LdMetRS,Mtb growth Cornell
Cc1nc(CN(C)C2CCN(Cc3nnc(C4CC4)o3)C2)no1 (stereo not shown),-12.7%,18.03%,-
CC1c2ncc(COCC3CCOCC3)n2CCN1Cc1cccnc1.O=C(O)C(F)(F)F.O=C(O)C(F)(F)F (stereo not shown),-13.65%,-,33.09%
CCOc1ccc(-c2ccnc(COc3ccccc3)n2)cc1C(=O)O,18.45%,14.84%,-
O=C(O)C(F)(F)F.[H][C@@]12C[C@@H](OCc3ccccc3F)CN1CCN(C(=O)c1cnccn1)C2,-26.22%,-,-5.209%
CN(C)CCN(C)C(=O)Cc1ccc2c(c1)OCCO2,-,10.12%,-
CCNC(=O)NC[C@@H]1C=C(C)[C@H](CC(=O)NCCN(C)C)C[C@H]1C(C)C,-26.72%,12.09%,-
O=C(O)C(F)(F)F.[H][C@@]12CN(c3ncc(C)cn3)C[C@@]1([H])N(CC(C)C)C(=O)CO2,-4.881%,-,7.932%
CC1=N[C@@]2(CC[C@@H]3CN(S(=O)(=O)N(C)C)C[C@@H]32)C(=O)N1CC(C)C,-,12.46%,-
COC(=O)c1cccc2nc([C@H]3CCN(C4CCN(C)CC4)C3)oc12,-24.4%,9.023%,-4.225%
O=C(O)C(F)(F)F.[H][C@@]12CCN(C(=O)c3cnn(C)c3)[C@@]1([H])CCN2Cc1cccc(F)c1,6.285%,-,25.2%
CNC(=O)N1CCC2(CC1)CNc1ccc(F)cc12,-,5.923%,-
O=C(O)C(F)(F)F.[H][C@@]12CCCO[C@]1([H])[C@H](OCC(=O)N(C)C)CN2Cc1scnc1C,-19.7%,-,19.76%
O=c1ccncn1Cc1csc(C2CC2)n1,4.898%,7.326%,-
Cc1nc[nH]c1CN1C[C@@H]2CC[C@H](C1)N(C(=O)CCc1cnn(C)c1)C2,-,15.04%,-
Cc1c(CN2CCc3nc4sccc4c(=O)n3CC2)cnn1C.Cl,-11.07%,-,51.95%
O=C(c1ccc(-n2cccn2)nc1)N1CCC(c2ccn[nH]2)C1 (stereo not shown),-13.91%,17.72%,0.926%
CCc1cnc(CN(C)C2CCN(CCn3cc(C#N)cn3)C2)o1 (stereo not shown),-17.01%,8.547%,-29.76%
CN(C)CCn1nc(C2CCN(Cc3ccccc3)C2)c2cccnc21 (stereo not shown),-37.03%,14.78%,23.77%
CN(CCCSc1ccccc1)C(=O)Cn1ncc(N(C)C)cc1=O,3.452%,2.046%,-18.99%
COc1ccc2c(ccn2CCC(=O)Nc2n[nH]c(C(C)C)n2)c1,-6.154%,12.3%,23.89%
CS(=O)(=O)c1cncnc1C1CCCN(C(=O)Nc2ccccc2F)C1 (stereo not shown),11.9%,5.28%,-0.3596%
CCCn1ncc(C(=O)N(C)Cc2n[nH]c3c2CCC3)c1C,1.027%,10.05%,5.292%
CC(C)(N)c1cn(C2CCN(C3CCSCC3)CC2)nn1,-47.3%,-1.12%,0.9305%
CC(=O)Nc1nc(-c2ccc(C)c(C)c2)c[nH]1,16.15%,-3.106%,11.16%
CCO[C@H]1CC[C@H]2[C@H]1OCCN2C(=O)c1nn(C)c2ccccc12,-,14.21%,-
CCN1CCC2(CCC(=O)N2Cc2cccc(C)n2)CC1,-,16.5%,-
CCN(CC)S(=O)(=O)N(Cc1cccc(C)c1)Cc1ccccn1,-7.57%,2.538%,-
CCCc1cc(=O)[nH]c2nnc(SCC(=O)NCc3ccc(C)cc3)n12,10.87%,12.32%,15.77%
O=C(O)C(F)(F)F.O=C(O)C(F)(F)F.O=C(O)C(F)(F)F.[H][C@]12C[C@@H](C(=O)NCC3CC3)N(C)[C@@]1([H])CN(Cc1cccnc1OC)C2,-0.5017%,-,8.174%
O=C(NC1CC1)C1CCN(c2snc3ccccc23)CC1,-11.62%,4.871%,-15.96%
CN1CCC(NC(=O)c2cc(C3CCCCC3)nc3ccccc23)CC1,11.02%,2.5%,16.15%
CN(C)Cc1nc(C2(NC(=O)Nc3cccc(F)c3)CCCC2)no1,-9.329%,7.614%,-
CC(=O)N1CCCC1c1nnn2cc(Nc3ccccc3)ccc12.O=C(O)C(F)(F)F (stereo not shown),86.99%,-,6.436%
Cc1ccc2oc(N3CCN(CC(=O)NC(C)C)CC3)nc2c1,-8.945%,6.959%,-26.02%
CNC(=O)[C@@]12CCC3(CCNCC3)[C@@H]1CN(S(C)(=O)=O)C2,-,18.27%,-
Cc1cccc(C(C(=O)NCCCc2ccccn2)N(C)C)c1 (stereo not shown),-20.86%,4.839%,-30.48%
Cc1ccc(C)c(CNC(=O)NC(C)(C(=O)O)c2ccco2)c1 (stereo not shown),-2.64%,16.54%,50.37%
O=C(O)C(F)(F)F.[H][C@]12C[C@H](C(=O)NC)N(C(C)=O)[C@@]1([H])CN(Cc1c(C)noc1C)C2,1.488%,-,-19.67%
O=S(=O)(CCN1CCCC1Cn1cncn1)c1ccccc1 (stereo not shown),15.81%,13.11%,-
CN(Cc1ccccn1)CC1CCCN1c1cccnn1 (stereo not shown),14.93%,23.76%,-
[H][C@@]12CCN(c3cnccn3)C[C@@]1(C(=O)O)CCCN2CCCSC,-40.76%,-,-57.17%
CCc1cc(N[C@@H](CO)C(N)=O)n2nc(C)c(C)c2n1,-9.8%,14.95%,-1.746%
c1cncc(O[C@H]2CC[C@H]3[C@H]2OCCN3C2CCC2)c1,-,13.12%,-
CC1c2cccn2CCN1S(=O)(=O)N1CCCCCC1 (stereo not shown),3.147%,9.03%,29.6%
CN(Cc1ccc(C#N)cc1)Cn1nccc1-c1cccnc1,-25.49%,15.19%,-
Cc1cc(C(=O)N[C@H]2CC[C@@]3(CCC(=O)N3)CC2)no1,13.01%,1.667%,-

The last 5 entries again:

{"structure": "CCc1cc(N[C@@H](CO)C(N)=O)n2nc(C)c(C)c2n1", "Mtb heat-shock": -9.8, "LdMetRS": 14.95, "Mtb growth Cornell": -1.746}
{"structure": "c1cncc(O[C@H]2CC[C@H]3[C@H]2OCCN3C2CCC2)c1", "LdMetRS": 13.12}
{"structure": "CC1c2cccn2CCN1S(=O)(=O)N1CCCCCC1", "stereo": "stereo not shown", "Mtb heat-shock": 3.147, "LdMetRS": 9.03, "Mtb growth Cornell": 29.6}
{"structure": "CN(Cc1ccc(C#N)cc1)Cn1nccc1-c1cccnc1", "Mtb heat-shock": -25.49, "LdMetRS": 15.19}
{"structure": "Cc1cc(C(=O)N[C@H]2CC[C@@]3(CCC(=O)N3)CC2)no1", "Mtb heat-shock": 13.01, "LdMetRS": 1.667}